Measurements reported in PubChem BioAssay AID1259424 (University of Nebraska Medical Center, 2018)
Aim: 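Seek colon cancer survival genes behaving like KSR1, using a six-gene signature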 (primary screen). Cell system: human HCT116 colon cancer cells. Reagent: siRNA pool against human genes, 50 nM. Read-out: 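Six signature mRNAs by branched-DNA multiplex assay, scaled to two housekeeping genes and non-targeting median, log2; matched to mean KSR1 knockdown profile by Pearson correlation and euclidean distance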. Scale: mean correlation with KSR1 profile and KSR1 correlation: higher = expression change more like KSR1 knockdown; mean distance from KSR1 profile: higher = expression change less like KSR1 knockdown.
Here is an unselected part of about 14,000 reagents. 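Higher correlation or smaller distance means closer resemblance to KSR1 loss; control wells, including KSR1 knockdowns, recur on many plates.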 Further read-outs or replicates are left out here. Not stated in the record: the time to read-out.

gene symbol | mean correlation with KSR1 profile | mean distance from KSR1 profile | KSR1 correlation, replicate 1 | KSR1 correlation, replicate 2
OSBPL1A | 0.601 | 1.71 | 0.111 | 0.526
NEK10 | 0.461 | 3.62 | 0.573 | 0.373
CLCA1 | 0.112 | 1.88 | 0.0611 | -0.0541
BIN3-IT1 | 0.273 | 1.56 | 0.299 | 0.124
BRIX1 | -0.238 | 3.37 | -0.00196 | -0.471
NIPSNAP2 | -0.24 | 2.43 | -0.205 | -0.415
ATOX1 | -0.0306 | 1.49 | 0.137 | -0.188
TPI1 | -0.673 | 2.06 | -0.716 | -0.692
HTATSF1 | -0.711 | 3.79 | -0.654 | -0.71
ARL1 | -0.741 | 2.96 | -0.622 | -0.682
TRAPPC1 | -0.716 | 4.89 | -0.515 | -0.703
EPCIP | -0.435 | 3.43 | -0.362 | -0.641
ITGA2 | 0.24 | 2.12 | 0.413 | 0.154
REG1A | 0.395 | 1.25 | 0.454 | 0.291
TECPR2 | -0.263 | 3.35 | -0.234 | -0.311
CCK | 0.128 | 1.31 | 0.189 | -0.05
KCTD14 | 0.413 | 2.6 | 0.231 | 0.297
GJA9 | 0.531 | 1.59 | 0.262 | 0.448
MRTO4 | -0.331 | 2.37 | -0.224 | -0.374
CELA3A | -0.194 | 1.68 | -0.264 | -0.269
ZNF35 | -0.14 | 2.38 | -0.167 | 0.122
GFUS | -0.147 | 4.2 | -0.00671 | -0.197
PFAS | -0.799 | 2.1 | -0.703 | -0.205
SH2B1 | -0.259 | 2.69 | -0.086 | -0.233
GABRB1 | 0.188 | 2.62 | 0.335 | 0.153
MKLN1 | 0.272 | 1.15 | 0.143 | 0.125
LGALSL | 0.0639 | 1.99 | -0.0699 | -0.319
KLHL7 | 0.135 | 1.45 | -0.0331 | -0.0363
ERO1A | 0.0476 | 1.11 | 0.128 | -0.197
UTP25 | 0.0786 | 2.29 | -0.174 | -0.465
PRSS1 | 0.633 | 0.798 | 0.361 | 0.555
ZNF175 | -0.128 | 1.49 | 0.0422 | -0.349
DNAJC12 | -0.689 | 3.06 | -0.633 | -0.705
AP3D1 | -0.104 | 2.06 | 0.00477 | -0.172

Already shown: an excerpt of the list.
gene symbol | mean correlation with KSR1 profile | mean distance from KSR1 profile | KSR1 correlation, replicate 1 | KSR1 correlation, replicate 2
TRAPPC1 | -0.716 | 4.89 | -0.515 | -0.703
EPCIP | -0.435 | 3.43 | -0.362 | -0.641
